PubChem BioAssay AID602196, INSERM – 2012
Aim: 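Genes whose knock-down alters cisplatin killing of lung cancer cells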. Cell system: human A549 lung cancer cells. Reagents: siRNA pair against human genes. Duration: 48 h transfection before cisplatin; time from cisplatin to read-out not stated. Conditions: cisplatin at a dose killing half of control-siRNA cells; exact dose and duration not given. Measurement: 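Cisplatin cell death as a shift from the 50% death seen with control siRNA; siRNAs toxic or growth-blocking alone scored 0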. Reading the numbers: two-siRNA summed score (-2 to +2): higher = both siRNAs protect from cisplatin killing; -2 means both sensitise; mean protection from cisplatin (shift in death) and protection from cisplatin (shift in death), siRNA C and protection from cisplatin (shift in death), siRNA D: higher = protection from cisplatin killing. Rule for the call: 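Each siRNA scores 0 if harmful alone by LDH or WST-1, otherwise +1 if it reduces and -1 if it increases cisplatin killing; a gene is active when both siRNAs agree (sum +2 or -2)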. Calls: active = both siRNAs shift cisplatin killing the same way; inactive = no consistent shift, or siRNA harmful alone.
The deposit covers about 23,000 reagents; shown is an unselected part. Of all reagents, 455 (2%) were called active. 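Active includes both protection and sensitisation; some change values fall well beyond the stated -50 to +50 range.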 No sequences are given here. The record does not give: the amount of reagent.

Target gene | PubChem SID | two-siRNA summed score (-2 to +2) | mean protection from cisplatin (shift in death) (%) | protection from cisplatin (shift in death), siRNA C (%) | protection from cisplatin (shift in death), siRNA D (%) | call
LOC440725 | SID131521816 | 1 | 15 | 18.2 | 11.8 | inactive
FLJ90036 | SID131508890 | 0 | 1.6 | -8.5 | 11.7 | inactive
PRG4 | SID131517674 | 0 | 14.3 | 14.2 | 14.4 | inactive
RRBP1 | SID131501673 | -1 | -8.2 | 0.7 | -17.2 | inactive
IFI27L1 | SID131523124 | 2 | 20.7 | 16.2 | 25.3 | active
MIS12 | SID131515712 | 0 | 9.6 | 4.2 | 14.9 | inactive
CD3G | SID131505205 | 0 | -3.6 | -4.8 | -2.3 | inactive
LOC389667 | SID131518500 | 0 | 20.6 | 5.2 | 35.9 | inactive
SRP14 | SID131511219 | 0 | 4.1 | 4.6 | 3.6 | inactive
ZNF414 | SID131508828 | 0 | 1.5 | -1.3 | 4.3 | inactive
LOC441620 | SID131507516 | 0 | 0 | 3.4 | -3.5 | inactive
TPRG1L | SID131508993 | 0 | 1.7 | -1.2 | 4.6 | inactive
CTDSPL2 | SID131504168 | 0 | -6.3 | -0.6 | -11.9 | inactive
HRH2 | SID131521551 | 1 | 13.9 | 15.3 | 12.6 | inactive
CRABP2 | SID131509466 | 0 | 2.2 | 9 | -4.7 | inactive
EHD1 | SID131502883 | 0 | -20.2 | -35.5 | -4.9 | inactive
SEMA3G | SID131508503 | 0 | 1.1 | 8.3 | -6.1 | inactive
DKFZP564D166 | SID131516740 | 0 | 11.5 | 20.3 | 2.8 | inactive
TAS1R2 | SID131522129 | 1 | 16.4 | 11.7 | 21 | inactive
HEPACAM | SID131502642 | -1 | 0.7 | 25.8 | -24.3 | inactive
LOC441097 | SID131515905 | 0 | 9.9 | 7.4 | 12.4 | inactive
NDUFS8 | SID131517445 | 0 | 13.4 | 17.2 | 9.7 | inactive
FAF2 | SID131513411 | 0 | 6.6 | 14.2 | -1 | inactive

A run of entries of the results above, as a working copy:
Target gene | PubChem SID | two-siRNA summed score (-2 to +2) | mean protection from cisplatin (shift in death) (%) | protection from cisplatin (shift in death), siRNA C (%) | protection from cisplatin (shift in death), siRNA D (%) | call
ZNF414 | SID131508828 | 0 | 1.5 | -1.3 | 4.3 | inactive
LOC441620 | SID131507516 | 0 | 0 | 3.4 | -3.5 | inactive
